Source: US9937265B2, “Self-assembling peptide and polysaccharide complexes” (University of Leeds, priority 2013, dated 2018)

Legend:
[1] = Visual observation of gelation of peptide and peptide:GAG samples (systematic mixing study); type: physicochemical; settings: what triggers gelation, 20 mg/ml
Experimental: Preparation of Peptide Solutions
Solutions of peptides were prepared directly in either D2O or H2O containing either 130 or 200 mM NaCl or PBS. Peptide concentrations in the millimolar range given for the NMR studies were values multiplied by an appropriate factor to account for the actual percentage peptide content. The samples were vortexed for 20 seconds, and then sonicated for 15 minutes. Solution pD was measured and adjusted to either 7.4 or 6.0±0.5 using a calibrated pH meter and the relation pD =pH meter reading +0.417. Any adjustment of pD, if necessary, was made with minimal μL volumes of either HCl or DCl and/or either NaOH or NaOD. Finally, solution vials were closed, sealed with PTFE tape, and then warmed to approximately 80° C. to maximise peptide solubility. Solutions were left to equilibrate at room temperature.
Preparation of Peptide:Glycosaminoglycan Gels.
The concentration of peptide was kept constant for each sample (20 mg/ml) and the molar ratio of GAG subunit to one peptide was increased. The samples were named by the number of GAG subunits to each peptide present e.g. P11-12:GAG 1:10=one P11-12 peptide monomer to ten GAG dimer subunits. GAG was added to peptide solutions after preparation as stated above. The mixtures were vortexed as heated again to ensure complete mixing.
The effects of mixing chondroitin sulphate GAG with the peptides were investigated. It was hypothesised that the charged GAG chains would interact electrostatically with the charged peptides. To establish whether such an interaction was possible, visual observations of a systematic mixing study was carried out and the morphology of the aggregates formed during mixing studied using TEM. • P11-4: […]

[2] = Transmission electron microscopy study of peptide:glycosaminoglycan gels; type: physicochemical; settings: TEM
Excerpt: Transmission Electron Microscopy Study of Peptide: Glycosaminoglycan Gels
Electron microscope (EM) grids (copper 300 mesh) were coated with carbon prior to use, by the flotation of a carbon film from a mica sheet onto the grids. The EM grids were then glow discharged prior to sample application to ensure adhesion of the sample to the EM grid. Peptide gels prepared in phosphate buffered saline solution were quickly diluted by various factors in pure water. The EM grids were touched onto the peptide solutions for one minute. The grid was air-dried and then negatively stained with uranyl acetate solution (4% w/v) for 20 seconds and air-dried. TEM images were obtained using a Philips CM10 electron microscope operating at 80 kV accelerating voltage. Images were obtained quickly to avoid artefacts and destruction of the sample.

Row | Substance | Trigger [1] | twist pitch of helical structures ([2]; diluted to approximately 20 μM) | twist pitch of tubular structures ([2]; diluted to approximately 20 μM) | width of tubular structures ([2]; diluted to approximately 20 μM) | width of ribbons ([2]; negatively stained, samples months old)
1 | Ac-QQRFEWEFEQQ-NH2 [Peptide P11-4] | pH |  |  |  | 
2 | CH3CO-Q-Q-R-F-O-W-O-F-E-Q-Q-NH2 [Peptide P11-8] | pH |  |  |  | 
3 | CH3CO-S-S-R-F-O-W-O-F-E-S-S-NH2 [Peptide P11-12] | pH | approx 230 nm | ~165 nm | 25±2 nm | 
4 | Ac-SSRFEWEFESS-NH2 [Peptide P11-9] | pH |  |  |  | 3-5 nm
